From article PMC10163288 come the findings set out here.

The other results are listed elsewhere or left out.

The labels stand for the following.
B1: il10ra_site1_normal_mot_HHH_b2_06602_000000226_0001_1_16_H_._HHH_b1_00447_0001_0000300020_0000001_0_af2pred_0001 (protein)
chain: SSSSSEELAKRAFRLLVKAFELARKGNPEEARKVLEEAEELAEEGNDEALVRALRVLLRLLSSSS
B2: il10ra_site1_sap_24_mot_HHH_b1_00169_000000276_0001_1_18_H_._HHH_b1_05295_0001_0000200012_0000001_0_0001 (protein)
chain: SSSSDEDEEYARMALRFVEWLIEAGNPEAARSMLRAAKQVVKRLGDEEVLRLLEELQEELSSSSS
B3: il10ra_site1_sap_12_mot_HHH_b2_08172_af2_000000094_0001_41_56_H_._4d38eb9c16805ff794392fe48eb80f74_0001_0001_0000200008_0000001_0_0001 (protein)
chain: TAAFKAAQLTVKALELLQENTEEAREKVEELSEEAEELLEKIDDPRERHYVEAAIRFIENAAKGS
B4: il10ra_site1_sap_12_mot_HHH_b2_06600_af2_000000211_0001_1_16_H_._HHH_b2_03325_0001_0000300035_0000002_0_0001_af2pred_0001 (protein)
chain: SSSSSSDEEEVRELLEEAEKVPDPEERSYLLIRAFAVAAQARNPELERLVREVAHKLISSSSSSS
B5: il10ra_site1_normal_mot_HHH_b1_06789_af2_000000041_0001_1_20_H_._HHH_b2_08151_0001_0000200026_0000001_0_af2pred_0001 (protein)
chain: SSSSNEAAKWLVELALETAEIAAKNGDPEKAERALRIAKLTAELNNDEELKEEIEEVERRISSSS
B6: il10ra_site1_normal_mot_8756ee2cf497b5429c717dfc0c0bcfd6_0001_000000186_0001_1_13_H_._HHH_b1_00596_af2_0001_0000100003_0000001_1 (protein)
chain: SSSSSDESEEVAELLREVAELERDGNPEEAEEVLRQAREIAEELGNDVLRVQIEYLERQLSSSSS
B7: il10ra_site1_normal_mot_e1dd4851c59bc1cdde016f988f6856bd_0001_1_000000200_0001_16_31_H_._HHH_b2_04538_0001_0000100013_0000002_0_af2pred_0001 (protein)
chain: SSSSSESEELMRELAIRLLELARRGDEEKFEELTEEAKRLLEELNDREAVRKIEILYKLLNSSSS
B8: il10ra_site1_normal_mot_HHH_b1_00999_000000080_0001_41_55_H_._HHH_b2_07428_0001_0000100013_0000001_0 (protein)
chain: SSSSSDEEEVEKLLEKAEELAERGNPEEANRLLQRAVQIAFRAKNQELLREIWEVVRRLGSSSSS
B9: il10ra_site1_normal_mot_HHH_b1_07641_af2_000000285_0001_1_21_H_._HHH_b2_02373_0001_0000100004_0000002_0_af2pred_0001 (protein)
chain: SSSSDTREAIKLAREAAEALNKGDTEEARELLEQAREIAEEAGNLVLLVAIEFLLEEVEQLSSSS
B10: il10ra_site1_sap_15_mot_HHH_b1_05357_000000034_0001_23_39_H_._HHH_b1_07279_0001_0000600048_0000001_0_0001 (protein)
chain: SSSSSTQEVYKLLKRAIELRRDGNPEEARELLERAQEIAEEEGSRVMEVIIEFVLKVVEDSSSSS
B11: il10ra_site1_normal_mot_HHH_b2_00230_000000227_0001_1_19_H_._HHH_b2_06600_0001_0000200024_0000001_0 (protein)
chain: SSSSSNDELYELVRELIKALRHGDEELFEKLLEEAEKLAEELNDFAVKFVLRLLERQLRHSSSSS
B12: il10ra_site1_normal_mot_HHH_b1_04175_af2_000000064_0001_24_41_H_._HHH_b2_08305_0001_0000100006_0000001_0_af2pred_0001 (protein)
chain: SSSSDVEEEVERLLEEAKHIEDPEELAEVLLEATELAWKNNDPELIHLVAKVAKEIKEELSSSSS
B13: il10ra_site1_sap_17_mot_HHH_b2_00984_000000042_0001_1_20_H_._HHH_b1_04789_af2_0001_0000100010_0000001_0_0001 (protein)
chain: SSSSSSDDRVARILMRASRAAFRGNHEEARELLEEAEEIVRELGDEHLLELIEDLLKSFSSSSSS
B14: il10ra_site1_sap_16_mot_HHH_b2_00943_af2_000000149_0001_1_17_H_._HHH_b1_06222_0001_0000300032_0000001_0_0001_af2pred_dldesign_0_af2pred (protein)
chain: SSSSSPENEELVRLIREVAELLYDGKPEEAREKLKEAEELTEKLGDEIFKRNIELLRKELESSSS
B15: il10ra_site1_normal_mot_8756ee2cf497b5429c717dfc0c0bcfd6_0001_000000186_0001_1_13_H_._HHH_b2_04893_0001_0000400029_0000001_0_af2pred_0001 (protein)
chain: SSSSDLSERVLELLREAVELYRNGNPEEAREVLEEAQELAEEGNSAVLEAQIRFLEKIVNSSSSS
B16: il10ra_site1_normal_mot_HHH_b1_08508_000000230_0001_42_56_H_._29942a5be24fc2f98b7700bb5318e672_0001_1_0001_0000300018_0000002_0 (protein)
chain: SEEEIEEILKELEERGNVAAFAILYFLRVLKKEGLSPKEAVELLLELAREQGNERAVRILEKLLK
B17: il10ra_site1_normal_mot_HHH_b2_00277_af2_000000172_0001_1_17_H_._HHH_b1_03696_0001_0000500029_0000002_0_af2pred_0001 (protein)
chain: SSSSSEEEIEERVKELLEEAKRIPDPKERSYVLIEAFALANRLNDDELKKLVEEVALELLSSSSS
B18: il10ra_site1_sap_15_mot_HHH_b1_03531_000000273_0001_41_54_H_._HHH_b2_00993_0001_0000200012_0000001_0_0001_af2pred_0001 (protein)
chain: SSSSTEEEIRELLEEVEELIERGNNHEAAKLLKKLAELISELNNDELLKELRELAQLVIRVSSSS
B19: il10ra_site1_sap_12_mot_HHH_b1_05329_000000008_0001_43_56_H_._HHH_b1_01196_af2_0001_0000500006_0000001_0_0001 (protein)
chain: SSSSSSEEELEELERELKEALEENDRQLVLELIIRLIRIAFQLNDPEALHLAFEAAKKLESSSSS

This test has as its target il10ra, Q13651. The test can be described thus: yeast display titration.
For B1, the “apparent Kd” value was “inactive: no binding seen”.
As for B2, the “apparent Kd” value was “inactive: no binding seen”.
Turning to B3, the “apparent Kd” value was “inactive: no binding seen”.
B4: the “apparent Kd” value was “inactive: no binding seen”.
In the case of B5, the “apparent Kd” value was “inactive: no binding seen”.
As for B6, the “apparent Kd” value is “inactive: no binding seen”.
In the case of B7, the “apparent Kd” value is “inactive: no binding seen”.
In the case of B8, the “apparent Kd” value is “inactive: no binding seen”.
In the case of B9, the “apparent Kd” value was “inactive: no binding seen”.
As for B10, the “apparent Kd” value is “inactive: no binding seen”.
Regarding B11, the “apparent Kd” value was “inactive: no binding seen”.
Under B12 stands “inactive: no binding seen”; under B13, “inactive: no binding seen”; under B14, “inactive: no binding seen”.
As to B15, the “apparent Kd” value was “inactive: no binding seen”.
Turning to B16, the “apparent Kd” value is “inactive: no binding seen”.
As for B17, the “apparent Kd” value was “inactive: no binding seen”.
For the molecule B18, the “apparent Kd” value is “inactive: no binding seen”.
For the molecule B19, the “apparent Kd” value was “inactive: no binding seen”.
